Assay results published in patent US9526739B2, “Compositions and methods to treat cardiac diseases” (University of Connecticut, priority 2010, dated 2016).
Some of these results come from one statement about several compounds together.

The chains behind the UniProt entries cited, without tags or fusion partners. Where a name states a change or a piece, a line headed by the entry shows the natural chain unless it says otherwise.
UniProt P47900: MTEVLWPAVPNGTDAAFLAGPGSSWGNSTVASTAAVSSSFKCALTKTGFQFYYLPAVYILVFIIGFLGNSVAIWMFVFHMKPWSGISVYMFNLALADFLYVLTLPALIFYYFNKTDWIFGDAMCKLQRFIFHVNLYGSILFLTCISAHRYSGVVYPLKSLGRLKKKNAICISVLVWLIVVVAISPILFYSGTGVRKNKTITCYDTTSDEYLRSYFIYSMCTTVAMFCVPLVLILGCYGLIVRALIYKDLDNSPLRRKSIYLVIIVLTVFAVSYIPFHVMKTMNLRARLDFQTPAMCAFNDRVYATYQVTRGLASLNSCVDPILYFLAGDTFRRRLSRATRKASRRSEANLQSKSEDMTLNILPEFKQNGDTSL

Target: T1, human P2Y1 receptor (Homo sapiens, UniProt P47900)
T1 construct: T. K. Harden, University of North Carolina School of Medicine; host or cells: 1321N1 human astrocytoma cells
Assay: FLIPR assay of calcium flux in 1321N1 astrocytoma cells stably expressing the human P2Y1 receptor
Assay type: cell-based
Settings: at concentrations up to 10 μM

**Q.** Which “agonist effect at the hP2Y1 receptor (in words)” value (from here on “agonist effect”) does the source give for Nc1ncnc2c1ncn2[C@H]1[C@H](O)[C@H](O)C2(CP(=O)(O)O)C[C@H]12 (stereo partly drawn) [Compound 5, (1′S,2′R,3′S,4′R,5′S)-4′-(6-Aminopurin-9-yl)-2′,3′-(dihydroxy)-1′-(phosphonomethylene)-bicyclo[3.1.0]hexane] here?
**A.** The value was “inactive”.

**Q.** For Nc1ncnc2c1ncn2[C@H]1[C@H](O)[C@H](O)C2(CCP(=O)(O)O)C[C@H]12 (stereo partly shown) [Compound 10], which “agonist effect” value is on record?
**A.** Its value is “inactive”.

**Q.** For Nc1nc(Cl)nc2c1ncn2[C@H]1[C@H](O)[C@H](O)C2(CCP(=O)(O)O)C[C@H]12 (stereo partly shown) [Compound 9], which “agonist effect” value is on record?
**A.** Its value is “inactive”.

**Q.** How did the “agonist effect” value turn out when Nc1nc(Cl)nc2c1ncn2[C@H]1[C@H](O)[C@H](O)C2(/C=C/P(=O)(O)O)C[C@H]12 (stereo partly drawn) [Compound 7, (1′S,2′R,3′S,4′R,5′S)-4′-(6-Amino-2-chloropurin-9-yl)-2′,3′-(dihydroxy)-1′-[(E)-phosphonoethenyl]-bicyclo[3.1.0]-hexane] was run?
**A.** Its value is “inactive”.

**Q.** Which “agonist effect” value does the source give for Nc1ncnc2c1ncn2[C@H]1[C@H](O)[C@H](O)C2(/C=C/P(=O)(O)O)C[C@H]12 (stereo partly drawn) [Compound 8, (1′S,2′R,3′S,4′R,5′S)-4′-(6-Aminopurin-9-yl)-2′,3′-(dihydroxy)-1′-[(E)-phosphonoethenyl]-bicyclo[3.1.0]hexane] here?
**A.** The value was “inactive”.

**Q.** Which “agonist effect” value does the source give for Nc1nc(Cl)nc2c1ncn2[C@H]1[C@H](O)[C@H](O)C2(CP(=O)(O)O)C[C@H]12 (stereo partly drawn) [Compound 4, (1′S,2′R,3′S,4′R,5′S)-4′-(6-Amino-2-chloropurin-9-yl)-2′,3′-(dihydroxy)-1′-(phosphonomethylene)-bicyclo[3.1.0]hexane] here?
**A.** Its value is “inactive”.

**Q.** For CP(=O)(O)CC12C[C@@H]1[C@@H](n1cnc3c(N)nc(Cl)nc31)[C@H](O)[C@@H]2O (stereo partly drawn) [Compound 11, (1′S,2′R,3′S,4′R,5′S)-4′-(6-Amino-2-chloropurin-9-yl)-2′,3′-dihydroxy-1′-(methylphosphonicacid)-bicyclo[3.1.0]hexane], which “agonist effect” value is on record?
**A.** The value was “inactive”.
